Measurements published in paper PMC9842591.
Results are given in words; binding and its absence hold for the method and conditions named. In cells and extracts the contact can be indirect. Some results given as binding are weak or reduced against the parent protein; the word gives no strength. For some of these results: Tags and fused reporters may be left off the sequences shown.

T1: FLAG-tagged USP19-ER-C506S (enzymatically inactive mutant of the ER-localized USP19 isoform) (human) (UniProt O94966)
T1 sequence: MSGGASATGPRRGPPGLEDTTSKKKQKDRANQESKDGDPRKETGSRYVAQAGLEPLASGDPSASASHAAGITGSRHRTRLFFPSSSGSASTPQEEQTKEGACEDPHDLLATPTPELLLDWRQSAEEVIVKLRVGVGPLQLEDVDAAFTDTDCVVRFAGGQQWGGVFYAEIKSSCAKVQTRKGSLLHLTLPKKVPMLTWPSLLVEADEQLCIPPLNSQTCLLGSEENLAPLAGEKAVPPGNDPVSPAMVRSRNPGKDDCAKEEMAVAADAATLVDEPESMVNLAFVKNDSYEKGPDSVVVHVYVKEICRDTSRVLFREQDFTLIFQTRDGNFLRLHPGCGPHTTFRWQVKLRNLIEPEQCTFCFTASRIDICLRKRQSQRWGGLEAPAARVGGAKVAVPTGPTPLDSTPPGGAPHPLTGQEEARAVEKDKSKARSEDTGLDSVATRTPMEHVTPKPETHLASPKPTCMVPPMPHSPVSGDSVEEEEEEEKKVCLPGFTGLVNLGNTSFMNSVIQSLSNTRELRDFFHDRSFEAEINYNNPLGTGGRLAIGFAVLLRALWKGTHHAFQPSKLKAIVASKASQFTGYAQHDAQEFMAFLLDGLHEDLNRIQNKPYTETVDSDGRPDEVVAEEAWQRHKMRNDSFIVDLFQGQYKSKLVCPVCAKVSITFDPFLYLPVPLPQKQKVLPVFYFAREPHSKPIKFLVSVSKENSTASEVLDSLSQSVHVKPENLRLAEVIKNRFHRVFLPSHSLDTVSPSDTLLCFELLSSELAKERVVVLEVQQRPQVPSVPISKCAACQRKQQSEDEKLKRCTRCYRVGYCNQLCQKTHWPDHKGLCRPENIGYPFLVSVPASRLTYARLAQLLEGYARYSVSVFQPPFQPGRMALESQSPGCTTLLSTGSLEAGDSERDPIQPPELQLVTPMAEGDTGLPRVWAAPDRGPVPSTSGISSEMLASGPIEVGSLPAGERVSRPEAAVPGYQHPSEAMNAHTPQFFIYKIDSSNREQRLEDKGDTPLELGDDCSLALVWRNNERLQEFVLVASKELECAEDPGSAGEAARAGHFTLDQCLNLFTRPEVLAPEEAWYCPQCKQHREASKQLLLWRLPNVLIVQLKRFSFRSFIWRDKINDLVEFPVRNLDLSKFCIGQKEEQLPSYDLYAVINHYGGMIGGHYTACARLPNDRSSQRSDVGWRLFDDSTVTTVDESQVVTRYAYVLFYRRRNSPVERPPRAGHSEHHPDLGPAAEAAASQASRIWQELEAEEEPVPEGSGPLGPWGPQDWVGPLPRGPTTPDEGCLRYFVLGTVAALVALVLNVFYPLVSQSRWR

T2: FLAG-tagged USP19-ER-wt (endoplasmic reticulum-localized isoform of ubiquitin-specific protease 19) (human) (UniProt O94966)
T2 sequence: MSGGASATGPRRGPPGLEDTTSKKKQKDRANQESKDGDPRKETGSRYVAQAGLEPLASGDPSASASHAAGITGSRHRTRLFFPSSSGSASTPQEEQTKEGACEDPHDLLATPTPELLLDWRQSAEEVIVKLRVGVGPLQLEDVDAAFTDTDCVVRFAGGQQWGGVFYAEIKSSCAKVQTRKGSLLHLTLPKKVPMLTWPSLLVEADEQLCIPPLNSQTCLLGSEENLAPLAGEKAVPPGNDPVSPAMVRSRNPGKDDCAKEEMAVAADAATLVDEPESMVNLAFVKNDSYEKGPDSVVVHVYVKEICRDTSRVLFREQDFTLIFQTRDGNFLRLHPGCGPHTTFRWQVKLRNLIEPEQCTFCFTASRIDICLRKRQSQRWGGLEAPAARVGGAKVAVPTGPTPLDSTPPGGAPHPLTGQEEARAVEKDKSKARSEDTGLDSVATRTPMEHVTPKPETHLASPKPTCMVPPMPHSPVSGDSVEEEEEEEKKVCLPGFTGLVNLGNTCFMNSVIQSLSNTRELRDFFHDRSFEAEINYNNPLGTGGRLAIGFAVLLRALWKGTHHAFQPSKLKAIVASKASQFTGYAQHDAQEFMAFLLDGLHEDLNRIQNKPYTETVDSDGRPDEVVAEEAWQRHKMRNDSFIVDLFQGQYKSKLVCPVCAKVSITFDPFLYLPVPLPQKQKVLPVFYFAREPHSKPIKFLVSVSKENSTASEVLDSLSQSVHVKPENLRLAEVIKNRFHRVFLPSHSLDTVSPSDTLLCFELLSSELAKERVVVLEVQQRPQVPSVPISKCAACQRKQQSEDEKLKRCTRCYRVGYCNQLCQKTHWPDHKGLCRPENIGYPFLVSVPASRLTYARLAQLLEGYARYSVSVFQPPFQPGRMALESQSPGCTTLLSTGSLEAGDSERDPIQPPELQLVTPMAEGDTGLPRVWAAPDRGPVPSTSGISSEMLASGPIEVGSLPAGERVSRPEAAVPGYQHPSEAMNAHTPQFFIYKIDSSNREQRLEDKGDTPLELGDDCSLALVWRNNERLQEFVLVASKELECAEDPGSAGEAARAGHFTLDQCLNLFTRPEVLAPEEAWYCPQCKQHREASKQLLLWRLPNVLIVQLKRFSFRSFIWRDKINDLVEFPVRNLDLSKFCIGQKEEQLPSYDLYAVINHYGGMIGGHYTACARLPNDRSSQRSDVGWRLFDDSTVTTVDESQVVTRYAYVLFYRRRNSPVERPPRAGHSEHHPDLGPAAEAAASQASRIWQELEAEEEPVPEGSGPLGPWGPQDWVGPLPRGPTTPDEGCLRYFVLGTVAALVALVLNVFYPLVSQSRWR

T3: USP19-ER-CS ectopically expressed in MDA-MB-231 cells (human) (UniProt O94966)
T3 sequence: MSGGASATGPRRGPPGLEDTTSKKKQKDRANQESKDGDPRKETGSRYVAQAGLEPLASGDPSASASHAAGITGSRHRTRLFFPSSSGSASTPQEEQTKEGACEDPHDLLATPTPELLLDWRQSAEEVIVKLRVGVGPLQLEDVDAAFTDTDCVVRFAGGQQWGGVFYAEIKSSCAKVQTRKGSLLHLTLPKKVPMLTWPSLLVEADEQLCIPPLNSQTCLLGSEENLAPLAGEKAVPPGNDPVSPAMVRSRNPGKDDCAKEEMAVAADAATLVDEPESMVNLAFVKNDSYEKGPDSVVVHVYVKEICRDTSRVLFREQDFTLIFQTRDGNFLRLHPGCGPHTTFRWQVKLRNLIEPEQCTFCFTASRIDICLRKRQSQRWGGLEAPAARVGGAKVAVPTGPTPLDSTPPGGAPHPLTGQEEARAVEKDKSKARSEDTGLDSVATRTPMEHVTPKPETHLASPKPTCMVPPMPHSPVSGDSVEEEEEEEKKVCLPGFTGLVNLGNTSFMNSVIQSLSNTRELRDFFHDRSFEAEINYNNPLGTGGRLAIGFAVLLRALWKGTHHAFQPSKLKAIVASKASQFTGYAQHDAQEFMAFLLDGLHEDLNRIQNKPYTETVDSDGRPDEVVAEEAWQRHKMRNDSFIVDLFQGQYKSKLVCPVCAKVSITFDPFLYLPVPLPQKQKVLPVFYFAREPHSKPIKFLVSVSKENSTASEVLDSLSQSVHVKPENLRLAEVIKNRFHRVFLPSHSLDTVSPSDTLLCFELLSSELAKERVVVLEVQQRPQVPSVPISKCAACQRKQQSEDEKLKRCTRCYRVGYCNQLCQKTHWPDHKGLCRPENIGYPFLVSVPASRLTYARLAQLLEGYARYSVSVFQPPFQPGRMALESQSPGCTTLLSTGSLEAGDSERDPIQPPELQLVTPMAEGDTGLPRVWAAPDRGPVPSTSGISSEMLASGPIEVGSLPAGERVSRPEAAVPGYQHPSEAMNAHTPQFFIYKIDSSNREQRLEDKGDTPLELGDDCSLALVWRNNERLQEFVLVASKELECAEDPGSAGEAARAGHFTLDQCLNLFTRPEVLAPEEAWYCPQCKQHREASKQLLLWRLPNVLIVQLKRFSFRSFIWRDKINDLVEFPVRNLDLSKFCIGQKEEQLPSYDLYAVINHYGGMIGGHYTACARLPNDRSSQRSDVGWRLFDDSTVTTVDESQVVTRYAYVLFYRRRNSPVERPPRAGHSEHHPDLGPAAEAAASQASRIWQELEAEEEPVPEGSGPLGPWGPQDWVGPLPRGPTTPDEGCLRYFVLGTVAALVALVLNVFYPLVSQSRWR

T4: USP19-ER-wt ectopically expressed in MDA-MB-231 cells (human) (UniProt O94966)
T4 sequence: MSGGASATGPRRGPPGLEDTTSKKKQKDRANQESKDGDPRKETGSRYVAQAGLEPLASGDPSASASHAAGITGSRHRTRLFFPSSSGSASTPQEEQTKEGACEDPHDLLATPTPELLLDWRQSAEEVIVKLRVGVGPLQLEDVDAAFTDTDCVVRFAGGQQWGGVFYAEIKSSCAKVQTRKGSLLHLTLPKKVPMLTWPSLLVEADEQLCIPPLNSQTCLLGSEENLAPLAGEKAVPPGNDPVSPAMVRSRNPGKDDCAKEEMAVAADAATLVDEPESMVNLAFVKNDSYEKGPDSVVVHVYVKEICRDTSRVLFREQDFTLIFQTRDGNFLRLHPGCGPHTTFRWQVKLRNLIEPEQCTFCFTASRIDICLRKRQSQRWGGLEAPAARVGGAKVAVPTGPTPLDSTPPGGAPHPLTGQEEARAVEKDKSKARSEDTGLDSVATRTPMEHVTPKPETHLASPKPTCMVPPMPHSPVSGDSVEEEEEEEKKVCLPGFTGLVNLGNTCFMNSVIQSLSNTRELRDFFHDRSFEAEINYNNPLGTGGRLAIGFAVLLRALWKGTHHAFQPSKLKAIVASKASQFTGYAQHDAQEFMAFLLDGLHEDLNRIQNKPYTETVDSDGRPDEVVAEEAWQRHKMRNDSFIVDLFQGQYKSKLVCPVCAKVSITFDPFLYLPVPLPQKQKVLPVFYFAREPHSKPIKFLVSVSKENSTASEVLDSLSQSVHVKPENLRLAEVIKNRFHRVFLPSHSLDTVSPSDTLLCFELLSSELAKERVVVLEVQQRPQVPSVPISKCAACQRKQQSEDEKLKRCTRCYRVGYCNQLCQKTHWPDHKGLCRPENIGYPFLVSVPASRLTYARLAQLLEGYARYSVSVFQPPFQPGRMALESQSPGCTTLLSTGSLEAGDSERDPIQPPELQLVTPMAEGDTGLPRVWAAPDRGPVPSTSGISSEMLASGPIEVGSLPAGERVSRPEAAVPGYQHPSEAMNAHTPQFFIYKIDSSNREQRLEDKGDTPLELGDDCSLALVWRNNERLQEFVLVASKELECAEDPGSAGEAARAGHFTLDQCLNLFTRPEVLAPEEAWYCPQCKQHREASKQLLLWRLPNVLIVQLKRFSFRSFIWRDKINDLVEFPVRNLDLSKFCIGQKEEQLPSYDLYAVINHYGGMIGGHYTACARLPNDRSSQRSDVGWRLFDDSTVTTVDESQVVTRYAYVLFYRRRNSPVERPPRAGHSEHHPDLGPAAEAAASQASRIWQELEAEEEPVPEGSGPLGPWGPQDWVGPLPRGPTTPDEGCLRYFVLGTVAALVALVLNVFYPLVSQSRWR


Tests used:
[1] = molecular target: T1, FLAG-tagged USP19-ER-C506S (enzymatically inactive mutant of the ER-localized USP19 isoform) (human); assay: co-IP; HEK293T cells co-transfected with FLAG-tagged USP19 (ER or CY; wt or active-site mutant) and TβRI; lysate incubated with anti-Flag agarose beads 2 h at 4 °C, beads washed five times with TNE buffer; immunoblotting for TβRI
[2] = molecular target: T2, FLAG-tagged USP19-ER-wt (endoplasmic reticulum-localized isoform of ubiquitin-specific protease 19) (human); assay: as above
[3] = molecular target: T3, USP19-ER-CS ectopically expressed in MDA-MB-231 cells (human); assay: co-IP; MDA-MB-231 cells ectopically expressing USP19-ER-wt or USP19-ER-CS; endogenous TβRI (Supplementary Fig. S6A)
[4] = molecular target: T4, USP19-ER-wt ectopically expressed in MDA-MB-231 cells (human); assay: as above

| Binder | binding [1] | binding [2] | binding [3] | binding [4] |
| --- | --- | --- | --- | --- |
| HA-tagged TGF-β type I receptor (TβRI) (receptor, UniProt P36897 34-503) LQCFCHLCTKDNFTCVTDGLCFVSVTETTDKVIHNSMCIAEIDLIPRDRPFVCAPSSKTGSVTTTYCCNQDHCNKIELPTTVKSSPGLGPVELAAVIAGPVCFVCISLMLMVYICHNRTVIHHRVPNEEDPSLDRPFISEGTTLKDLIYDMTTSGSGSGLPLLVQRTIARTIVLQESIGKGRFGEVWRGKWRGEEVAVKIFSSREERSWFREAEIYQTVMLRHENILGFIAADNKDNGTWTQLWLVSDYHEHGSLFDYLNRYTVTVEGMIKLALSTASGLAHLHMEIVGTQGKPAIAHRDLKSKNILVKKNGTCCIADLGLAVRHDSATDTIDIAPNHRVGTKRYMAPEVLDDSINMKHFESFKRADIYAMGLVFWEIARRCSIGGIHEDYQLPYYDLVPSDPSVEEMRKVVCEQKLRPNIPNRWQSCEALRVMAKIMRECWYANGAARLTALRIKKTLSQLSQQEGIKM | binds | binds |  |  |
| endogenous TGF-β type I receptor (TβRI) of MDA-MB-231 cells (receptor, UniProt P36897 34-503) LQCFCHLCTKDNFTCVTDGLCFVSVTETTDKVIHNSMCIAEIDLIPRDRPFVCAPSSKTGSVTTTYCCNQDHCNKIELPTTVKSSPGLGPVELAAVIAGPVCFVCISLMLMVYICHNRTVIHHRVPNEEDPSLDRPFISEGTTLKDLIYDMTTSGSGSGLPLLVQRTIARTIVLQESIGKGRFGEVWRGKWRGEEVAVKIFSSREERSWFREAEIYQTVMLRHENILGFIAADNKDNGTWTQLWLVSDYHEHGSLFDYLNRYTVTVEGMIKLALSTASGLAHLHMEIVGTQGKPAIAHRDLKSKNILVKKNGTCCIADLGLAVRHDSATDTIDIAPNHRVGTKRYMAPEVLDDSINMKHFESFKRADIYAMGLVFWEIARRCSIGGIHEDYQLPYYDLVPSDPSVEEMRKVVCEQKLRPNIPNRWQSCEALRVMAKIMRECWYANGAARLTALRIKKTLSQLSQQEGIKM |  |  | binds | binds |
